SMILES strings stand for the structures. ± gives the standard deviation of the averaged measurements. The list shows a part of the results. Values are raw readings; no control value is given beside them.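 A neuron, microglia and astrocyte co-culture models inflammatory neurodegeneration: bacterial LPS drives microglia-dependent neuron loss. Each compound was tested against DMSO vehicle wells on the same plates; BAY61-3606, a SYK inhibitor, was the reference neuroprotective control.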

One assay concerns rat primary cerebellar neuron-glia coculture. Description: necrotic cell count (DRAQ7+) per image field (cells per field); higher = more necrosis. The note with it: LPS 0 ng/mL; 1 µM; treatment time 3 days. The method, then: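 Primary rat (P3-7) cerebellar neuron-glia cocultures in 384-well plates were treated at DIV7 with 1 uM compound, then with or without 100 ng/mL LPS 30 min later, for 3 days. At DIV10 live cells were stained with Hoechst 33342, NeuO (live neurons), IB4-AF594 (microglia) and DRAQ7 (necrotic cells) and imaged at 10x (4 fields per well, IN Cell Analyzer 6000). Cells were classified with Cellpose/CellProfiler plus a Random Trees classifier. Values are per-well mean counts per image field (raw, not min-max normalised) and the median microglial FormFactor per image. Three technical replicates per repeat across 4 biological repeats; DMSO and BAY61-3606 serve as controls.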
For `COc1ccc2c(c[n+](C)c3c4cc5c(cc4ccc23)OCO5)c1OC`, the necrotic cell count was 83.1 ± 37.
On the same count and under the same terms, the same measure for `CCNC(=O)C[C@@H]1N=C(c2ccc(Cl)cc2)c2cc(OC)ccc2-n2c(C)nnc21`: 422 ± 65; for `Cc1cccc(NC(=O)N[C@@H]2N=C(c3ccccc3)c3ccccc3N(C)C2=O)c1`: 73.7 ± 23; for `CN(C)C(=O)Oc1ccc2cc(Br)ccc2c1Br`: 85.9 ± 33.
The same measure, in the same setting: for `C[N+]1(C)[C@@H]2C[C@@H](OC(=O)[C@H](CO)c3ccccc3)C[C@H]1[C@@H]1O[C@@H]12` the value was 78.5 ± 28; for `O=C(NC1CN2CCC1CC2)c1cc(Br)cc2nc[nH]c12` (configuration not stated), 76.4 ± 35.

Staying with this assay, now noted: LPS 100 ng/mL; 1 µM; treatment time 3 days.
`COc1ccc2c(c[n+](C)c3c4cc5c(cc4ccc23)OCO5)c1OC` yielded a necrotic cell count of 1010 ± 490.
On the same count and under the same terms, for `CCNC(=O)C[C@@H]1N=C(c2ccc(Cl)cc2)c2cc(OC)ccc2-n2c(C)nnc21` the value was 1680 ± 470.
The same measure, in the same setting: for `Cc1cccc(NC(=O)N[C@@H]2N=C(c3ccccc3)c3ccccc3N(C)C2=O)c1` the value was 1050 ± 250.
Same read-out and setting: the same measure for `CN(C)C(=O)Oc1ccc2cc(Br)ccc2c1Br`: 985 ± 240; for `C[N+]1(C)[C@@H]2C[C@@H](OC(=O)[C@H](CO)c3ccccc3)C[C@H]1[C@@H]1O[C@@H]12`: 1100 ± 330; for `O=C(NC1CN2CCC1CC2)c1cc(Br)cc2nc[nH]c12` (configuration not stated): 1040 ± 460.

The record behind these values is the supplement of paper PMC10973195.
